Values quoted from earlier work, collected in patent US20230339922A1, “COVALENT EGFR INHIBITORS AND METHODS OF USE THEREOF” (DANA-FARBER CANCER INSTITUTE, INC., priority 2020, published 2023).
At least one compound was matched to its structure with a doubt left.

System: NSCLC that have developed resistance to gefitinib or erlotinib
Details: patients with NSCLC resistant to gefitinib or erlotinib; cited from earlier work

Compound: CN(C)C/C=C/C(=O)Nc1cc2c(Nc3ccc(F)c(Cl)c3)ncnc2cc1O[C@H]1CCOC1 [afatinib]
- RR (response rate): less than 10%
